Laboratory results published in paper doi:10.1101/2023.03.13.532326.
No constants are given. Whether binding was seen depends on the method and setting. Binding seen in cells or lysates may run through a third protein. Here binding means that the protein was enriched with, or labelled near, the bait; the list need not be complete.

Target: His6-FcrX (S. meliloti) (UniProt Q92JY7)
Experiment: affinity purification with mass spectrometry

B1: FtsZ1 (protein, UniProt P30327 1-590)
chain: MAINLQKPDITELKPRITVFGVGGGGGNAVNNMITAGLQGVDFVVANTDAQALTMTKAERIIQMGVAVTEGLGAGSQPEVGRAAAEECIDEIIDHLQGTHMCFVTAGMGGGTGTGAAPIVAQAARNKGILTVGVVTKPFHFEGGRRMRIADQGISDLQKSVDTLIVIPNQNLFRIANDKTTFADAFAMADQVLYSGVACITDLMVKEGLINLDFADVRSVMREMGRAMMGTGEASGEGRAMAAAEAAIANPLLDETSMKGAQGLLISITGGRDLTLFEVDEAATRIREEVDPDANIILGATFDEELEGLIRVSVVATGIDRTAAEVAGRSADFRPVAPKPIVRPSAAVPAQPQPTVSLQPVPQPQPVQQPLQQQNVDHIALAIREAEMERELDIAARAQVAAPAPQPQPHLQEEAFRPQSKLFAGVAPTEAAPVMRPAQPAPRPVEMQAPVQPQMQAQPVQQEPTQVVRQQAEPVRMPKVEDFPPVVKAEMDYRTQPAPAHQEERGPMGLLNRITSSLGLREREATNVSSDMTAAAPSAASQQRRPLSPEASLYAPRRGQLDDHGRAAPQMRSHEDDQLEIPAFLRRQSS
binding: binds
